Results published in patent US20240018268A1.
No constants are given. Whether binding was seen depends on the method and setting. Some entries that bind do so weakly or less than the wild type.

Sequences of proteins named here, by UniProt entry; tags and fusion partners are left off. A change or cut given only in a name is not applied to a line headed by its entry.
UniProt P10747: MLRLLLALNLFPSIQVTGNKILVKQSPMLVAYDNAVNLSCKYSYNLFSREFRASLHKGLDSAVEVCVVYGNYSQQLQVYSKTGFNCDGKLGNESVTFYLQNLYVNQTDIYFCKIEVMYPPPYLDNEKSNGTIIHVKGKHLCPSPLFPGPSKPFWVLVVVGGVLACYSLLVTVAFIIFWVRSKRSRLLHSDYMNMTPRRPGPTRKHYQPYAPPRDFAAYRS
UniProt P20963: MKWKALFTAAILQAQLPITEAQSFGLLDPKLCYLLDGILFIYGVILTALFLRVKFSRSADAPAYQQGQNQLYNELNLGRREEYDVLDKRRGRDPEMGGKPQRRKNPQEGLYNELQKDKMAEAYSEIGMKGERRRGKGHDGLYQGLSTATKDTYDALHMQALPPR

Experiments:
[1] = target: T1, anti-CD19 (SJ25C1-derived) chimeric antigen receptor (CAR), expressed on T cells or Jurkat cells (human) (UniProt P10747+P20963); assay: inferred from a T cell proliferation assay with plate-bound antibody
[2] = target: T1, anti-CD19 (SJ25C1-derived) chimeric antigen receptor (CAR), expressed on T cells or Jurkat cells (human); assay: flow cytometry, Alexa647-conjugated antibody, 20 to 0.0195 µg/mL, on CAR-transduced T cells; A-1 is the one named clone of the five

B1: anti-idiotype antibody clone A-1 (anti-ID A-1) (antibody, mouse IgG1, kappa, V domains shown)
VH: QVQLQQPGSELVRPGGSVKLSCKASDYTFTSYWMHWVRQRPGQGLEWIGNIYPGSGGTNYDEKFKRKATLTVDTSSSTAYMQLRSLTSEDSAVYYCTREVTTVAYYYSMDYWGQGTSVTVSS
VL: DIQMTQTTSSLSASLGDRVTISCRASQDISNYLNWYQQKPDGTVKLLIYYTSRLHSGVPSRFSGSGSGTDYSLTISNLEQEDIATYFCQQGKTVPFTFGSGTKLEIKR
- binding [1]: binds
- binding [2]: binds
